Experimental data: the supplement of paper PMC3334620
The full ranking holds about 33,000 sequences; the median of “E-score (-0.5 to 0.5)” is about -0.0059, and the highest 2% start at about 0.26. The list shows a part of the results.

biological target: T1, Cin5 (UniProt P40917); assay: PBM E-score (8-mer binding enrichment) (E-score (-0.5 to 0.5)); higher = stronger / more preferred TF binding; settings: protein concentration: 100 nM; construct: GST-full length
T1 sequence: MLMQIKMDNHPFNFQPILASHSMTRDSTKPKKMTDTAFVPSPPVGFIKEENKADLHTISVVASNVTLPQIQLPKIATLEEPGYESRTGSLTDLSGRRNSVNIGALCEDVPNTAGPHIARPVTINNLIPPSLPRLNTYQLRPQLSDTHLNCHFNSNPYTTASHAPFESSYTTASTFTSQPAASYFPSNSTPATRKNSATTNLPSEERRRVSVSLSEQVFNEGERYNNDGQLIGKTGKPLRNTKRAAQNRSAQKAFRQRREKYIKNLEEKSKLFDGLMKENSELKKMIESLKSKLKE
How it was run: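 Universal all-10-mer Agilent arrays, double-stranded by primer extension on fresh or once-stripped slides, were probed with about 100-200 nM GST-tagged yeast transcription factors made by PURExpress. Fluorescent anti-GST detected bound protein, and masliner normalised the scans. E-scores from the Universal PBM Analysis Suite were given to each ungapped eight-base word pooled with its reverse complement.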

Row | Sequence | PBM E-score
1 | ACTATCAG | -0.00105
2 | CAGACCGC | 0.0618
3 | CACATTCA | 0.0477
4 | CCAAAAAC | 0.123
5 | AGATCTCG | 0.0286
6 | ATGGTTTC | 0.0652
7 | CAATTGGA | 0.0923
8 | ACCGGGCG | -0.328
9 | AGTACTGA | 0.104
10 | ATGCTAGC | -0.007
11 | CTTATAGA | 0.13
12 | TAAGTCAA | 0.0506
13 | GACAATCC | 0.148
14 | AAGCAAGA | 0.126
15 | ACCATTGA | -0.00031
16 | TCGACCGA | -0.062
17 | GCCTACGA | 0.0143
18 | ACCACGCC | -0.269
19 | GTATCGTA | 0.148
20 | CAACACGA | 0.0657
21 | CGAATAAG | -0.121
22 | CAAGTCCA | -0.128
23 | AACGCAAG | 0.00496
24 | CGGCCCGA | -0.121
25 | CAACCCCC | -0.356

Row | Sequence | PBM E-score
26 | GACATCTA | 0.0357
27 | CCACATGG | -0.152
28 | CACGTGTA | 0.019
29 | CTTGTCAA | -0.0299
30 | AATAATAT | 0.356
31 | AGCCATTC | 0.09
32 | AGGAGAAG | -0.129
33 | AGTACGAC | 0.0931
34 | CTAGGGAC | -0.16
35 | CAGCCATA | -0.0852
36 | CACAGAAC | -0.157
37 | GTGTCTCA | -0.0352
38 | CGAGGCCG | -0.204
39 | AAGTCTGA | -0.254
40 | ACGGGGAT | -0.0426
41 | AACGAATA | 0.0414
42 | CACCCTCG | -0.0636
43 | GCAGTAGC | -0.198
44 | TTGGAAAA | 0.0334
45 | AGGCAATA | 0.029
46 | CTTGGGTC | -0.0931
47 | GAGGTCCA | -0.14
48 | CAAACTGG | 0.0735
49 | ACGCGAGC | 0.025
50 | TCGAGTAA | 0.191

Row | Sequence | PBM E-score
51 | AGCTGTTG | 0.0373
52 | AGGCGCCT | -0.0953
53 | ATGAGAAG | -0.0766
54 | AATCCTAT | 0.202
55 | CCAGGTTC | -0.258
56 | CCCAATCC | -0.013
57 | CCATCAGC | -0.00921
58 | GGAGACAA | 0.0469
59 | CTTTCCTC | -0.146
60 | GCGACCCA | -0.0919
61 | GGCAGGCC | -0.267
62 | CCCCCCGC | -0.413
63 | GCTGTGCA | -0.242
64 | CAAAGGTG | -0.0729
65 | GGCCAGCA | -0.0464
66 | ATGCAGCG | -0.15
67 | AAAACGAC | -0.0346
68 | AGAATAGG | 0.175
69 | AGAGGATA | -0.0885
70 | ATGATCCG | -0.0235
71 | AGTGGTAC | -0.0959
72 | GTTCCGGA | 0.0526
73 | CCTGCCAG | -0.245
74 | ACGTTCCG | 0.00868
75 | ATCTAATA | 0.19

In a second layout: results already given.
AACGAATA
  PBM E-score: 0.0414
CACCCTCG
  PBM E-score: -0.0636
GCAGTAGC
  PBM E-score: -0.198

Additional results follow:

Row | Sequence | PBM E-score
76 | CCCCATCA | 0.0908
77 | CAGCTATC | -0.0573
78 | ACTAGACA | 0.0434
79 | CGTAGATC | 0.0806
80 | TATTGTGA | 0.132
81 | AGCTTCGC | -0.0766
82 | CGTCCTAG | -0.189
83 | AAAGACTA | -0.141
84 | AAGCCGGT | 0.00444
85 | GCGGGAGC | -0.207
86 | CAAGGGAG | -0.178
87 | ATCCCCAT | 0.086
88 | CCGTACGC | -0.175
89 | ATGTATGC | 0.185
90 | GCGGACAA | 0.094
91 | AAGAGTTG | 0.0662
92 | AGTATGCA | 0.0195
93 | CACTCGAA | -0.0491
94 | CTCTACCA | 0.00013
95 | AGTAGTGA | 0.0605
96 | AGAGGGAT | -0.228
97 | GGCTATCA | -0.072
98 | AGGGAGGG | -0.126
99 | CTCGCCAG | -0.167
100 | CACCCGGC | -0.351

Row | Sequence | PBM E-score
101 | GTCCGGAC | 0.224
102 | ACCAATCG | 0.118
103 | GTTCCAAC | -0.102
104 | ACTCGCTG | -0.0532
105 | ACCTCAGG | -0.0652
106 | AGAATGAC | 0.0989
107 | CAGAGGCG | -0.0867
108 | CAGTCTTC | -0.184
109 | AAGTGAAT | 0.222
110 | TAGTTACA | 0.0444
111 | AGCTCGAG | -0.0648
112 | CGTATACG | 0.0769
113 | AACTAGAC | 0.0502
114 | GAATTTCC | 0.101
115 | ATCAGGCC | -0.0206
116 | GTCATATA | 0.168
117 | GAGCGCAC | -0.0882
118 | AAGTCGGA | -0.047
119 | AATCAGAT | 0.12
120 | GAAGGAAC | -0.167
121 | TGCCGCCA | -0.00336
122 | CTCTCGAA | -0.104
123 | GTGAACTA | -0.0419
124 | CGGAAGAG | -0.0136
125 | GGATATGA | 0.0996

Single values from above.
In PBM E-score, GGCTATCA shows -0.072
In PBM E-score, ACTAGACA shows 0.0434
In PBM E-score, CGTCCTAG shows -0.189
In PBM E-score, AAAGACTA shows -0.141
In PBM E-score, ACGCGAGC shows 0.025
In PBM E-score, CAAACTGG shows 0.0735
In PBM E-score, AGGCAATA shows 0.029

Additional results:

Row | Sequence | PBM E-score
126 | AAAAATAC | 0.159
127 | ACAAACTC | 0.059
128 | ACCTACGG | -0.381
129 | GAAAGTGC | -0.103
130 | CTTTAAGA | 0.12
131 | GAGCGACA | -0.0378
132 | GCTGAGCA | 0.021
133 | GCCCGCCC | -0.0859
134 | GTTAACCA | 0.0943
135 | CACAGTAA | 0.209
136 | GTGCAAGA | 0.0774
137 | ACTCACAT | 0.0812
138 | ATTATTCC | 0.273
139 | ACCGTTCA | -0.0881
140 | ATGGGTGG | 0.194
141 | ACGCAGAC | -0.065
142 | ATGTGACG | 0.0123
143 | CGAAGGTA | 0.00785
144 | GCACAGAC | 0.0155
145 | GTAGCTGA | -0.14
146 | ACATTTGG | -0.0058
147 | ATAAAGGA | -0.157
148 | AAAAGAAC | 0.0584
149 | CTCGATAA | 0.149
150 | CCCCGTCG | -0.31

Some of the entries so far, with tabs:
Row	Sequence	PBM E-score
146	ACATTTGG	-0.0058
147	ATAAAGGA	-0.157

The results go on.

Row | Sequence | PBM E-score
151 | AGACACAT | -0.147
152 | CGGTATGC | -0.138
153 | CAGTATGA | 0.149
154 | CACCACGA | 0.0261
155 | AGACACAG | -0.0513
156 | ACGGCATG | -0.0125
157 | AAAATAAT | 0.212
158 | AGTAGCGA | 0.108
159 | AGTCCGGA | -0.0408
160 | CCAATAAA | 0.134
161 | GACCTGTA | -0.102
162 | CTGGTTGA | -0.165
163 | GGAAGCTA | -0.0268
164 | ACCGCTTG | 0.0485
165 | CAACGGGA | -0.00044
166 | AGATTTCC | 0.185
167 | AAGGCAAA | 0.185
168 | ACGTTCTA | 0.0493
169 | CGACATCC | -0.101
170 | GCCGACTA | 0.104
171 | CTGGTCTA | -0.172
172 | AGTAGAAT | 0.137
